Reference: the supplement of paper PMC12889115
Some of the results follow. Values are raw readings; no control value is given beside them.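 Primary screen: polymyxin B was added at a level permeabilizing Salmonella outer membranes while sparing inner membranes. DMSO wells, both with and without polymyxin B, established maximum growth. Plate-to-plate variation meant each plate was ranked on its own, and the lowest-OD600 compounds were selected as hits.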

Test system: Salmonella enterica serovar Typhimurium SL1344
Test: bacterial growth OD600 after 18 h with compound and polymyxin B; higher = more bacterial growth (less inhibition)
Settings: 50 µM, Mueller-Hinton broth

| Compound | bacterial growth OD600 (polymyxin B 1 µg/mL) | bacterial growth OD600 (polymyxin B 0.75 µg/mL) |
| --- | --- | --- |
| CC(=O)c1ccc(S(=O)(=O)NCc2cccnc2N(C)C)cc1 | 0.814 |  |
| CCOC(=O)N1CCC(NC(=O)c2cc(NC(=O)CC)cc3nc(Cc4ccccc4)n(C)c23)CC1 |  | 0.879 |
| CCn1cc(CNC(=O)c2ccc(OC3CCN(C)CC3)c(OC)c2)cn1 | 0.998 |  |
| CCOc1ccc(CN2CCN(Cc3cccc(-n4cccn4)c3)CC2CCO)cc1 (centres undefined) | 1.16 |  |
| O=C(c1ccccn1)N(C1CC1)C(Cc1ccccc1)C1CCN(Cc2cc(Cl)ccc2O)CC1 (centres undefined) |  | 0.016 |
| COc1cccc(NC(=O)CCC2CCN(C(=O)C(OC)c3ccccc3)CC2)c1 (centres undefined) | 0.876 |  |
| O=C(CN1CCCCC1)N(CC1CCN(C2Cc3ccccc3C2)CC1)CC1CCCO1 (centres undefined) | 1.27 |  |
| COc1ccc(F)c(CN2CCC(Oc3ccc(C(=O)N4CCCC4)cc3)CC2)c1 | 1.22 |  |
| O=C(c1[nH]nc2c1CCCC2)N1CCC(n2c(CC3CCCC3)nc3cccnc32)CC1 |  | 0.823 |
| COc1cccc(N2CCN(C(=O)CCC3(Cc4ccc(Cl)cc4)CCC(=O)N3)CC2)c1 (centres undefined) |  | 0.839 |
| COc1ccc(F)c(CC2(CCC(=O)N3CCCC3c3ccc(F)cc3)CCC(=O)N2)c1 (centres undefined) |  | 0.889 |
| O=C(C1CCCC1)N1CCC(C2(c3ccccn3)NC(=O)N(CCc3cccs3)C2=O)CC1 (centres undefined) |  | 0.811 |
| Cc1ccc(Oc2ncccc2CNC(=O)NC2CCCCC2)cn1 | 1.09 |  |
| CC(c1ccon1)N(C)c1ccc(-c2nc(-c3ccccc3F)no2)cn1 (centres undefined) | 0.795 |  |
| COCCN1C(=O)CC(CC(=O)NCc2ncccc2C)(c2ccccc2OC)C1=O (centres undefined) |  | 0.787 |
| COC(=O)c1c(S(=O)(=O)Nc2ccc3c(c2)CCC3)sc2c1CCN(C(=O)CC1CC1)C2 |  | 0.004 |
| CC(=O)c1ccc(N2CCN(C(=O)CC3(c4ccccc4Cl)CC(=O)N(C)C3=O)CC2)cc1 (centres undefined) |  | 0.872 |
| COc1ccc(NC(=O)NC2CC(=O)N(Cc3cccc(F)c3)C2)cc1 (centres undefined) | 0.92 |  |
| CN(Cc1ccno1)CC1(O)CCCN(Cc2ccc(F)c(F)c2)C1=O (centres undefined) | 0.926 |  |
| CCCN1CCN(C(=O)c2ccc(OC3CCN(S(=O)(=O)N(C)C)CC3)cc2)CC1 | 0.998 |  |
| COc1ccc(CCN2CC(NC(=O)c3cccc(C)c3)CC2=O)cc1 (centres undefined) | 0.425 |  |
| COCCCN1C(=O)CC(CC(=O)N2CCC(OCc3ccccc3)CC2)(c2ccccc2)C1=O (centres undefined) |  | 0.611 |
| Cc1cnc(SCCN2CCOCC2)nc1C1CCCN(C(=O)/C=C/c2cccnc2)C1 (centres undefined) |  | 0.828 |
| O=C(CCCN1CCCCC1=O)NC1CCCN(CC2CCCCC2)C1 (centres undefined) |  | 0.841 |
| COc1cccc(CNCc2c(C(=O)N3CCCCCC3)nc3cc(C)ccn23)c1 | 0.008 |  |
| COc1ccc2cc(-c3n[nH]cc3CN3CCC(N4CCSCC4)CC3)ccc2c1 | 0.72 |  |
| COc1ccc(F)c(CC2(CCC(=O)NC(Cc3ccccc3)c3ccccc3)CCC(=O)N2)c1 (centres undefined) |  | 0.815 |
| Cc1cccc(CN2CCCC(O)(CNCc3ccccc3)C2=O)c1 (centres undefined) | 0.865 |  |
| COC(=O)c1ccc(CNC(=O)C2CCC(=O)N(Cc3ccccc3OC)C2)cc1 (centres undefined) | 0.89 |  |

Part of the list above in order of molecular weight, low to high:

| Compound | bacterial growth OD600 (polymyxin B 1 µg/mL) | bacterial growth OD600 (polymyxin B 0.75 µg/mL) |
| --- | --- | --- |
| CC(=O)c1ccc(S(=O)(=O)NCc2cccnc2N(C)C)cc1 | 0.814 |  |
| Cc1ccc(Oc2ncccc2CNC(=O)NC2CCCCC2)cn1 | 1.09 |  |
| O=C(CCCN1CCCCC1=O)NC1CCCN(CC2CCCCC2)C1 (centres undefined) |  | 0.841 |
| CCOc1ccc(CN2CCN(Cc3cccc(-n4cccn4)c3)CC2CCO)cc1 (centres undefined) | 1.16 |  |
| O=C(c1[nH]nc2c1CCCC2)N1CCC(n2c(CC3CCCC3)nc3cccnc32)CC1 |  | 0.823 |
| COc1cccc(N2CCN(C(=O)CCC3(Cc4ccc(Cl)cc4)CCC(=O)N3)CC2)c1 (centres undefined) |  | 0.839 |
